# The list shows a part of the results. Many values rest on one well or one pass, so single values are uncertain.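 Imaging used 1,536-well plates; nuclei positive for cleaved PARP by antibody were divided by total DNA-stained nuclei to yield the apoptosis fraction. Doses for screening kept most cells viable, and cell lines differ markedly in resting and induced cleaved-PARP levels.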
# System: IPC-298
# Assay: cleaved PARP positive nuclei fraction relative to DMSO control; melanoma cells; higher = more apoptosis
# Details: library dose: low library concentration; 72 h
row,Structure (SMILES),cleaved PARP positive nuclei fraction [%]
1,"CCCS(=O)(=O)Nc1ccc(F)c(C(=O)c2c[nH]c3ncc(Cl)cc23)c1F + Oc1nc(-c2ccc(C(F)(F)F)cc2)nc2c1CSCC2 [XAV939] (first compound 0.08 µM, partner dose 2 µM)",99.8
2,"Nc1nc(F)nc2c1ncn2[C@@H]1O[C@H](CO)[C@@H](O)[C@@H]1O [fludarabine] + COc1ccc(-c2ccc3c(N4CCOCC4)nc(N4C[C@@H](C)O[C@@H](C)C4)nc3n2)cc1CO [KU0063794] (first compound 0.2 µM, partner dose 0.02 µM)",86.8
3,"CS(=O)(=O)CCNCc1ccc(-c2ccc3ncnc(Nc4ccc(OCc5cccc(F)c5)c(Cl)c4)c3c2)o1 [lapatinib] + O=C(Nc1ccccc1)c1cc([N+](=O)[O-])ccc1Cl [GW9662] (first compound 0.8 µM, partner dose 2 µM)",134
4,"C=C(c1ccc(C(=O)O)cc1)c1cc2c(cc1C)C(C)(C)CCC2(C)C [Bexarotene] + CCc1ccc(CCOc2ccc(CC3SC(=O)NC3=O)cc2)nc1 [pioglitazone] (first compound 2 µM, partner dose 2 µM)",121
5,"C=C(c1ccc(C(=O)O)cc1)c1cc2c(cc1C)C(C)(C)CCC2(C)C [Bexarotene] + c1cc(-c2cnn3cc(-c4ccc(OCCN5CCCCC5)cc4)cnc23)ccn1 [Dorsomorphin] (first compound 2 µM, partner dose 0.4 µM)",32.3
6,"CS(=O)(=O)CCNCc1ccc(-c2ccc3ncnc(Nc4ccc(OCc5cccc(F)c5)c(Cl)c4)c3c2)o1 [lapatinib] + COc1cc(N2CCC(N3CCN(C)CC3)CC2)ccc1Nc1ncc(Cl)c(Nc2ccccc2S(=O)(=O)C(C)C)n1 [NVP-TAE684] (first compound 0.8 µM, partner dose 0.08 µM)",49
7,"CNC(=O)c1cc(Oc2ccc(NC(=O)Nc3ccc(Cl)c(C(F)(F)F)c3)cc2)ccn1 [sorafenib] + CCN(CC)CCCCNc1ncc2cc(-c3cc(OC)cc(OC)c3)c(NC(=O)NC(C)(C)C)nc2n1 [PD173074] (first compound 0.4 µM, partner dose 0.1 µM)",150
8,"CO[C@H]1C[C@@H]2CC[C@@H](C)[C@@](O)(O2)C(=O)C(=O)N2CCCC[C@H]2C(=O)O[C@H]([C@H](C)C[C@@H]2CC[C@@H](OCCO)[C@H](OC)C2)CC(=O)[C@H](C)/C=C(\C)[C@@H](O)[C@@H](OC)C(=O)[C@H](C)C[C@H](C)/C=C/C=C/C=C/1C [everolimus] + O=C1NC(=O)/C(=C/c2ccc(-c3ccc(F)cc3O)o2)S1 [AS252424] (first compound 0.02 µM, partner dose 1 µM)",175

# Some of the entries so far, with tabs.
row	Structure (SMILES)	cleaved PARP positive nuclei fraction [%]
5	C=C(c1ccc(C(=O)O)cc1)c1cc2c(cc1C)C(C)(C)CCC2(C)C [Bexarotene] + c1cc(-c2cnn3cc(-c4ccc(OCCN5CCCCC5)cc4)cnc23)ccn1 [Dorsomorphin] (first compound 2 µM, partner dose 0.4 µM)	32.3
7	CNC(=O)c1cc(Oc2ccc(NC(=O)Nc3ccc(Cl)c(C(F)(F)F)c3)cc2)ccn1 [sorafenib] + CCN(CC)CCCCNc1ncc2cc(-c3cc(OC)cc(OC)c3)c(NC(=O)NC(C)(C)C)nc2n1 [PD173074] (first compound 0.4 µM, partner dose 0.1 µM)	150

# System: IST-MEL1
# Assay: as above
# Details: library dose: low library concentration; 72 h
row,Structure (SMILES),cleaved PARP positive nuclei fraction [%]
1,"Nc1ccn([C@@H]2O[C@H](CO)[C@@H](O)C2(F)F)c(=O)n1 [gemcitabine] + O=S(=O)(c1ccccc1)N(CC(F)(F)F)c1ccc(C(O)(C(F)(F)F)C(F)(F)F)cc1 [T0901317] (first compound 0.0004 µM, partner dose 1.4 µM)",150
2,"Nc1ncn([C@H]2C[C@H](O)[C@@H](CO)O2)c(=O)n1 [decitabine] + O=C(Nc1ccccc1)c1cc([N+](=O)[O-])ccc1Cl [GW9662] (first compound 0.1 µM, partner dose 2 µM)",94.4
3,"Nc1nc(F)nc2c1ncn2[C@@H]1O[C@H](CO)[C@@H](O)[C@@H]1O [fludarabine] + Cn1cc(/C=C2\C(=O)Nc3cccnc32)c2ccccc21 [GW441756] (first compound 0.2 µM, partner dose 0.4 µM)",43.3
4,"Nc1ccn([C@@H]2O[C@H](CO)[C@@H](O)C2(F)F)c(=O)n1 [gemcitabine] + CCN(CC)CCCCNc1ncc2cc(-c3cc(OC)cc(OC)c3)c(NC(=O)NC(C)(C)C)nc2n1 [PD173074] (first compound 0.0004 µM, partner dose 0.1 µM)",171
5,"CCCS(=O)(=O)Nc1ccc(F)c(C(=O)c2c[nH]c3ncc(Cl)cc23)c1F + COc1ccc(COc2ccc(Cc3cnc(N)nc3N)cc2OC)cc1 [GW2580] (first compound 0.08 µM, partner dose 1 µM)",54.8
6,"Nc1ccn([C@@H]2O[C@H](CO)[C@@H](O)C2(F)F)c(=O)n1 [gemcitabine] + CCc1ccc(CCOc2ccc(CC3SC(=O)NC3=O)cc2)nc1 [pioglitazone] (first compound 0.0004 µM, partner dose 2 µM)",124
7,"Nc1ncn([C@H]2C[C@H](O)[C@@H](CO)O2)c(=O)n1 [decitabine] + Oc1cc(-c2nc(-c3ccccc3)[nH]c2-c2ccncc2)ccc1Cl [L779450] (first compound 0.1 µM, partner dose 0.2 µM)",98.4
8,"CNC(=O)c1cc(Oc2ccc(NC(=O)Nc3ccc(Cl)c(C(F)(F)F)c3)cc2)ccn1 [sorafenib] + Cc1cc([N+](=O)[O-])ccc1NS(=O)(=O)c1cc(Cl)ccc1Cl [FH535] (first compound 0.4 µM, partner dose 1 µM)",200
9,"O=C(O)c1ccc2c(c1)nc(Nc1cccc(Cl)c1)c1ccncc12 + N#Cc1c(O)c2c(-c3ccc(-c4ccccc4O)cc3)csc2[nH]c1=O [A769662] (first compound 0.4 µM, partner dose 2 µM)",84.6
10,"Nc1ccn([C@@H]2O[C@H](CO)[C@@H](O)C2(F)F)c(=O)n1 [gemcitabine] + COc1ccc(COc2ccc(Cc3cnc(N)nc3N)cc2OC)cc1 [GW2580] (first compound 0.0004 µM, partner dose 1 µM)",125
11,"Nc1ncn([C@H]2C[C@H](O)[C@@H](CO)O2)c(=O)n1 [decitabine] + O=C1NC(=O)/C(=C/c2ccc(-c3ccc(F)cc3O)o2)S1 [AS252424] (first compound 0.1 µM, partner dose 1 µM)",164
12,"CCCS(=O)(=O)Nc1ccc(F)c(C(=O)c2c[nH]c3ncc(Cl)cc23)c1F + Cn1cc(/C=C2\C(=O)Nc3cccnc32)c2ccccc21 [GW441756] (first compound 0.08 µM, partner dose 0.4 µM)",99.3
13,"Cc1cc(Nc2cc(N3CCN(C)CC3)nc(/C=C/c3ccccc3)n2)n[nH]1 + O=c1cc(-c2cccc3c2Sc2ccccc2S3)oc(N2CCOCC2)c1 [KU55933] (first compound 0.04 µM, partner dose 1 µM)",90.9
14,"Cn1c(=O)n(-c2ccc(C(C)(C)C#N)cc2)c2c3cc(-c4cnc5ccccc5c4)ccc3ncc21 + COc1cc2ncnc(Nc3ccc(Oc4ccccc4)cc3)c2cc1OC [SrcI1] (first compound 0.004 µM, partner dose 2 µM)",220
15,"Cc1cc(Nc2cc(N3CCN(C)CC3)nc(/C=C/c3ccccc3)n2)n[nH]1 + O=S(=O)(c1ccccc1)N(CC(F)(F)F)c1ccc(C(O)(C(F)(F)F)C(F)(F)F)cc1 [T0901317] (first compound 0.04 µM, partner dose 1.4 µM)",137
16,"CCCS(=O)(=O)Nc1ccc(F)c(C(=O)c2c[nH]c3ncc(Cl)cc23)c1F + O=C1NC(=O)/C(=C/c2ccc(-c3ccc(F)cc3O)o2)S1 [AS252424] (first compound 0.08 µM, partner dose 1 µM)",229
17,"Cn1c(=O)n(-c2ccc(C(C)(C)C#N)cc2)c2c3cc(-c4cnc5ccccc5c4)ccc3ncc21 + CC(C)CCN1c2nc(Nc3cc(F)c(O)c(F)c3)ncc2N(C)C(=O)C1C [BID1870] (first compound 0.004 µM, partner dose 0.2 µM)",112
18,"CN1CCN(c2ccc3nc(-c4c(N)c5c(F)cccc5[nH]c4=O)[nH]c3c2)CC1 [Dovitinib] + Oc1cc(-c2nc(-c3ccccc3)[nH]c2-c2ccncc2)ccc1Cl [L779450] (first compound 0.1 µM, partner dose 0.2 µM)",112
19,"Nc1nc(F)nc2c1ncn2[C@@H]1O[C@H](CO)[C@@H](O)[C@@H]1O [fludarabine] + COc1cc(N2CCC(N3CCN(C)CC3)CC2)ccc1Nc1ncc(Cl)c(Nc2ccccc2S(=O)(=O)C(C)C)n1 [NVP-TAE684] (first compound 0.2 µM, partner dose 0.08 µM)",117
20,"Nc1ncn([C@H]2C[C@H](O)[C@@H](CO)O2)c(=O)n1 [decitabine] + COc1ccc(-c2ccc3c(N4CCOCC4)nc(N4C[C@@H](C)O[C@@H](C)C4)nc3n2)cc1CO [KU0063794] (first compound 0.1 µM, partner dose 0.02 µM)",315
21,"CCCS(=O)(=O)Nc1ccc(F)c(C(=O)c2c[nH]c3ncc(Cl)cc23)c1F + Oc1cc(-c2nc(-c3ccccc3)[nH]c2-c2ccncc2)ccc1Cl [L779450] (first compound 0.08 µM, partner dose 0.2 µM)",119
22,"C=C(c1ccc(C(=O)O)cc1)c1cc2c(cc1C)C(C)(C)CCC2(C)C [Bexarotene] + CCCCCCCCCCCC1=C(O)C(=O)C=C(O)C1=O [Embelin] (first compound 2 µM, partner dose 1.2 µM)",104
23,"O=C(O)c1ccc2c(c1)nc(Nc1cccc(Cl)c1)c1ccncc12 + Oc1nc(-c2ccc(C(F)(F)F)cc2)nc2c1CSCC2 [XAV939] (first compound 0.4 µM, partner dose 2 µM)",116

# Reference: the supplement of paper PMC4604168 (melanoma cell lines)
